Assay results reported in article PMC10477160.
Construct, isoform or probe ends are uncertain for at least one entry. Where cells or extracts were used, other partners may take part. A negative result means that nothing was seen under these conditions.

Sequences of proteins named here, by UniProt entry; tags and fusion partners are left off. A change or cut given only in a name is not applied to a line headed by its entry.
UniProt P51654: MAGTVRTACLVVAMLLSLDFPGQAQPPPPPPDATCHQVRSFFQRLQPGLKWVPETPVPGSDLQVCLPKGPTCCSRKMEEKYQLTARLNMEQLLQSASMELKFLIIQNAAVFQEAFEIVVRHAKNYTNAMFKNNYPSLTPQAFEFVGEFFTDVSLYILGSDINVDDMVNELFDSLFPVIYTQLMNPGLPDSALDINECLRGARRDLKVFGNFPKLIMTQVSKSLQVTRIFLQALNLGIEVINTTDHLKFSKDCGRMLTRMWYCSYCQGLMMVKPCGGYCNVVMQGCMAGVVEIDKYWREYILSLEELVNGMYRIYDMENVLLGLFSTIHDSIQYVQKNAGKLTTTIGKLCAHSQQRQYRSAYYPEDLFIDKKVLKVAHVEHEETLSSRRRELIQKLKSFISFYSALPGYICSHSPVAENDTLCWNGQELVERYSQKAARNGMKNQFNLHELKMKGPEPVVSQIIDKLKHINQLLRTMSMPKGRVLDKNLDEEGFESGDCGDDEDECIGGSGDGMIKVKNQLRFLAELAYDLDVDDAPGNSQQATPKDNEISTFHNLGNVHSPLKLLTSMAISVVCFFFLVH

Biological target: Glypican-3 (GPC3) on HepG2 cell surface (UniProt P51654)
Test: cell binding, confocal microscopy
Settings: HepG2 cells (GPC3+), 30 min, 5'-DBCO in the Table S1 version, Live HepG2 or HeLa cells incubated with FAM-labelled aptamer for 30 min, protein on the cell surface, label: 3'-FAM, single-stranded DNA

Sequence | binding result (no binding to GPC3-negative HeLa cells, the free aptamer is described only as FAM-modified) | binding result
TAACGCTGACCTTAGCTGCATGGCTTTACATGTTCCA [Gpc3 aptamer-FAM] | binds | –
TGATGATTAACGTCGTTACCTTGATCTGCGTATCCTA [Random aptamer (Gpc3 aptamer with random mutations)] | – | no binding
